PubChem BioAssay AID686938 | Drosophila RNAi Screening Center – 2013
The deposit covers about 23,000 reagents; below is a random part of those with a known target gene and a result. Of all reagents, 75 (0.33%) are marked active. 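Raw plate signals without normalisation; calls rest on plate z-scores that were not deposited; ratio present for only 364 wells.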 The record does not give: the dose of the treatment.

- Screen: 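Fly genes required for calcium entry once internal stores are emptied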 (primary screen)
- Cell system: Drosophila S2R+ cells
- Reagents: long dsRNA against Drosophila genes, about 0.25 µg dsRNA per well, roughly 10,000 cells
- Time to read-out: 5 days of knock-down before the calcium assay
- Treatment: thapsigargin (SERCA pump blocker) to empty calcium stores; entry signal taken 4 min after adding it
- Read-out: 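Per-well fluo-4 fluorescence in two replicates, unnormalised, measured in resting cells and 4 min after store depletion by the SERCA blocker thapsigargin; ratio of the two present in few wells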
- Scale: calcium entry signal: higher = stronger calcium signal after store depletion; resting calcium signal: higher = higher resting calcium signal
- Hit rule: 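Hit if the duplicate-averaged plate z-score for entry over resting signal is under −3; wells with weak total dye signal (Fmax z < −2) or more than 5 off-targets removed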
- Meaning of the calls: active = strongly reduced calcium entry; inactive = no strong reduction

Silencing of MED17 [DRSC16889] gave: calcium entry signal, replicate 1 (fluorescence units) = 3.05e7; calcium entry signal, replicate 2 (fluorescence units) = 2.69e7; resting calcium signal, replicate 1 (fluorescence units) = 1.71e7; resting calcium signal, replicate 2 (fluorescence units) = 1.41e7; inactive. Knock-down of HP1D3csd [DRSC19548] resulted in: calcium entry signal, replicate 1 (fluorescence units) = 5.55e7; calcium entry signal, replicate 2 (fluorescence units) = 4.49e7; resting calcium signal, replicate 1 (fluorescence units) = 2.39e7; resting calcium signal, replicate 2 (fluorescence units) = 1.99e7; inactive. For phyl [DRSC07663], the values are calcium entry signal, replicate 1 (fluorescence units) = 2.35e7; calcium entry signal, replicate 2 (fluorescence units) = 3.21e7; resting calcium signal, replicate 1 (fluorescence units) = 1.30e7; resting calcium signal, replicate 2 (fluorescence units) = 1.40e7; inactive. After knock-down of CG15254 [DRSC01870], the record shows calcium entry signal, replicate 1 (fluorescence units) = 4.36e7; calcium entry signal, replicate 2 (fluorescence units) = 2.97e7; resting calcium signal, replicate 1 (fluorescence units) = 1.88e7; resting calcium signal, replicate 2 (fluorescence units) = 1.54e7; inactive. CG15254 [DRSC21765] showed calcium entry signal, replicate 1 (fluorescence units) = 3.31e7; calcium entry signal, replicate 2 (fluorescence units) = 3.48e7; resting calcium signal, replicate 1 (fluorescence units) = 1.89e7; resting calcium signal, replicate 2 (fluorescence units) = 1.66e7; inactive. After knock-down of CG16813 [DRSC02520], the record shows calcium entry signal, replicate 1 (fluorescence units) = 4.98e7; calcium entry signal, replicate 2 (fluorescence units) = 3.43e7; resting calcium signal, replicate 1 (fluorescence units) = 2.19e7; resting calcium signal, replicate 2 (fluorescence units) = 1.47e7; inactive.

RNF220 [DRSC15652] showed calcium entry signal, replicate 1 (fluorescence units) = 4.65e7; calcium entry signal, replicate 2 (fluorescence units) = 4.40e7; resting calcium signal, replicate 1 (fluorescence units) = 2.20e7; resting calcium signal, replicate 2 (fluorescence units) = 1.95e7; inactive. After knock-down of Rpe [DRSC06407] the results were calcium entry signal, replicate 1 (fluorescence units) = 2.47e7; calcium entry signal, replicate 2 (fluorescence units) = 2.02e7; resting calcium signal, replicate 1 (fluorescence units) = 1.04e7; resting calcium signal, replicate 2 (fluorescence units) = 1.05e7; inactive. CG12325 [DRSC06130] showed calcium entry signal, replicate 1 (fluorescence units) = 2.99e7; calcium entry signal, replicate 2 (fluorescence units) = 2.77e7; resting calcium signal, replicate 1 (fluorescence units) = 1.61e7; resting calcium signal, replicate 2 (fluorescence units) = 1.53e7; inactive. Depletion of Dtd [DRSC15362] gave: calcium entry signal, replicate 1 (fluorescence units) = 3.60e7; calcium entry signal, replicate 2 (fluorescence units) = 3.53e7; resting calcium signal, replicate 1 (fluorescence units) = 1.54e7; resting calcium signal, replicate 2 (fluorescence units) = 1.68e7; inactive. TwdlT [DRSC16677] showed calcium entry signal, replicate 1 (fluorescence units) = 3.56e7; calcium entry signal, replicate 2 (fluorescence units) = 4.90e7; resting calcium signal, replicate 1 (fluorescence units) = 1.91e7; resting calcium signal, replicate 2 (fluorescence units) = 2.00e7; inactive. For TwdlT [DRSC21540] the deposit lists calcium entry signal, replicate 1 (fluorescence units) = 4.08e7; calcium entry signal, replicate 2 (fluorescence units) = 3.57e7; resting calcium signal, replicate 1 (fluorescence units) = 2.29e7; resting calcium signal, replicate 2 (fluorescence units) = 1.78e7; inactive.

CG14326 [DRSC14805] scored calcium entry signal, replicate 1 (fluorescence units) = 3.46e7; calcium entry signal, replicate 2 (fluorescence units) = 5.38e7; resting calcium signal, replicate 1 (fluorescence units) = 1.82e7; resting calcium signal, replicate 2 (fluorescence units) = 5.31e7; inactive. Against ssp5 [DRSC14955], the values are calcium entry signal, replicate 1 (fluorescence units) = 2.91e7; calcium entry signal, replicate 2 (fluorescence units) = 3.82e7; resting calcium signal, replicate 1 (fluorescence units) = 1.31e7; resting calcium signal, replicate 2 (fluorescence units) = 1.70e7; inactive. CR32745 [DRSC17442] showed calcium entry signal, replicate 1 (fluorescence units) = 3.06e7; calcium entry signal, replicate 2 (fluorescence units) = 3.66e7; resting calcium signal, replicate 1 (fluorescence units) = 1.44e7; resting calcium signal, replicate 2 (fluorescence units) = 1.84e7; inactive. CG12341 [DRSC06133] showed calcium entry signal, replicate 1 (fluorescence units) = 4.43e7; calcium entry signal, replicate 2 (fluorescence units) = 1.91e7; resting calcium signal, replicate 1 (fluorescence units) = 1.96e7; resting calcium signal, replicate 2 (fluorescence units) = 1.60e7; inactive. CR34254 [DRSC09562] showed calcium entry signal, replicate 1 (fluorescence units) = 4.14e7; calcium entry signal, replicate 2 (fluorescence units) = 3.03e7; resting calcium signal, replicate 1 (fluorescence units) = 2.09e7; resting calcium signal, replicate 2 (fluorescence units) = 1.38e7; inactive. alpha-Spec [DRSC08704] showed calcium entry signal, replicate 1 (fluorescence units) = 3.71e7; calcium entry signal, replicate 2 (fluorescence units) = 3.47e7; resting calcium signal, replicate 1 (fluorescence units) = 1.73e7; resting calcium signal, replicate 2 (fluorescence units) = 1.79e7; inactive.

With knock-down of CG13252 [DRSC11700], the record shows calcium entry signal, replicate 1 (fluorescence units) = 2.61e7; calcium entry signal, replicate 2 (fluorescence units) = 4.49e7; resting calcium signal, replicate 1 (fluorescence units) = 1.39e7; resting calcium signal, replicate 2 (fluorescence units) = 1.99e7; inactive. Depletion of Mco4 [DRSC20061] came out at: calcium entry signal, replicate 1 (fluorescence units) = 2.54e7; calcium entry signal, replicate 2 (fluorescence units) = 3.25e7; resting calcium signal, replicate 1 (fluorescence units) = 1.44e7; resting calcium signal, replicate 2 (fluorescence units) = 1.56e7; inactive. Silencing of Fak [DRSC07426] came out at: calcium entry signal, replicate 1 (fluorescence units) = 4.99e7; calcium entry signal, replicate 2 (fluorescence units) = 4.33e7; resting calcium signal, replicate 1 (fluorescence units) = 1.90e7; resting calcium signal, replicate 2 (fluorescence units) = 2.00e7; inactive. Against CG31807 [DRSC01550], the values are calcium entry signal, replicate 1 (fluorescence units) = 2.04e7; calcium entry signal, replicate 2 (fluorescence units) = 3.34e7; resting calcium signal, replicate 1 (fluorescence units) = 1.12e7; resting calcium signal, replicate 2 (fluorescence units) = 1.36e7; inactive. Against CG12725 [DRSC19501], the entry reads calcium entry signal, replicate 1 (fluorescence units) = 4.21e7; calcium entry signal, replicate 2 (fluorescence units) = 4.06e7; resting calcium signal, replicate 1 (fluorescence units) = 1.92e7; resting calcium signal, replicate 2 (fluorescence units) = 1.76e7; inactive. Against tut [DRSC08909], the entry reads calcium entry signal, replicate 1 (fluorescence units) = 1.96e7; calcium entry signal, replicate 2 (fluorescence units) = 2.81e7; resting calcium signal, replicate 1 (fluorescence units) = 1.13e7; resting calcium signal, replicate 2 (fluorescence units) = 1.23e7; inactive.

Trap1 [DRSC05019] showed calcium entry signal, replicate 1 (fluorescence units) = 4.01e7; resting calcium signal, replicate 1 (fluorescence units) = 2.03e7; inactive. Not3 [DRSC04908] showed calcium entry signal, replicate 1 (fluorescence units) = 3.94e7; resting calcium signal, replicate 1 (fluorescence units) = 2.16e7; inactive. With knock-down of CG32814 [DRSC17670], the record shows calcium entry signal, replicate 1 (fluorescence units) = 4.88e7; calcium entry signal, replicate 2 (fluorescence units) = 2.95e7; resting calcium signal, replicate 1 (fluorescence units) = 2.19e7; resting calcium signal, replicate 2 (fluorescence units) = 1.28e7; inactive.

3 entries from above, ordered by “resting calcium signal, replicate 1 (fluorescence units)”, highest first:
Not3 [DRSC04908]: calcium entry signal, replicate 1 (fluorescence units) = 3.94e7; resting calcium signal, replicate 1 (fluorescence units) = 2.16e7; outcome = inactive
Trap1 [DRSC05019]: calcium entry signal, replicate 1 (fluorescence units) = 4.01e7; resting calcium signal, replicate 1 (fluorescence units) = 2.03e7; outcome = inactive
tut [DRSC08909]: calcium entry signal, replicate 1 (fluorescence units) = 1.96e7; calcium entry signal, replicate 2 (fluorescence units) = 2.81e7; resting calcium signal, replicate 1 (fluorescence units) = 1.13e7; resting calcium signal, replicate 2 (fluorescence units) = 1.23e7; outcome = inactive
